Measured values published in the supplement of paper PMC7580552.
Structures can show the parent of a compound that is named as a salt. The list shows a part of the results. Baselines shift from plate to plate; read single values as rough.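 The strain is a K-12 laboratory model grown without shaking in 96-well plates, and biofilm is the crystal violet stain retained on the wells, read as absorbance. Drugs were picked as candidate specific biofilm blockers when they cut staining strongly but slowed free-floating growth by less than 70%.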

system: Escherichia coli W3110; experiment: biofilm formation (crystal violet staining) relative to untreated control; higher = more biofilm; conditions: 10 µM; 20-24 h; 30 °C; TB

Compound | biofilm formation
N[C@@H](Cc1cc(I)c(Oc2ccc(O)c(I)c2)c(I)c1)C(=O)O [Liothyronine] | 70%
Nc1c2ccccc2nc2ccccc12 [Aminacrine] | 79%
CN1CCC(=C2c3ccccc3Sc3ccccc32)CC1 [Pimethixene maleate] | 81%
C[C@H](CCC(=O)O)[C@H]1CC[C@H]2[C@@H]3[C@@H](O)C[C@@H]4C[C@H](O)CC[C@]4(C)[C@H]3CC[C@]12C [Urosiol] | 82%
C#C[C@]1(O)CC[C@H]2[C@@H]3CCC4=CCCC[C@@H]4[C@H]3CC[C@@]21C [Lynestrenol] | 47%
O=C(CCCN1CCN(c2ccccn2)CC1)c1ccc(F)cc1 [Azaperone] | 112%
NC[C@@H]1O[C@@H](O[C@H]2[C@H](O)[C@@H](O[C@H]3O[C@H](CO)[C@@H](O)[C@H](N)[C@H]3O)[C@H](N)C[C@@H]2N)[C@@H](O)[C@H](O)[C@H]1O [Kanamycin A sulfate] | 69%
COC(=O)C1=C(C#N)NC(C)=C(C(=O)OC(C)C)C1c1cccc([N+](=O)[O-])c1 (stereo not drawn) [Nilvadipine] | 59%
CC1CC(OC(=O)c2ccccc2O)CC(C)(C)C1 (stereo not drawn) [Homosalate] | 96%
OCCN(CCO)c1nc(N2CCCCC2)c2nc(N(CCO)CCO)nc(N3CCCCC3)c2n1 [Dipyridamole] | 77%
CN(c1nccc(=O)[nH]1)C1CCN(c2nc3ccccc3n2Cc2ccc(F)cc2)CC1 [Mizolastine] | 104%
O=C(O)c1ccccc1C(=O)Nc1ccc(S(=O)(=O)Nc2nccs2)cc1 [Phthalylsulfathiazole] | 63%
CN1CCN(C(c2ccccc2)c2ccccc2)CC1 [Cyclizine hydrochloride] | 106%
COc1cccc2c1C(=O)c1c(O)c3c(c(O)c1C2=O)C[C@@](O)(C(C)=O)C[C@@H]3O[C@H]1C[C@H](N)[C@H](O)[C@H](C)O1 [Daunorubicin hydrochloride] | 56%
C=CC1=C(C(=O)O)N2C(=O)[C@@H](NC(=O)/C(=N\O)c3csc(N)n3)[C@H]2SC1 [Cefdinir] | 12%
CC(=O)NS(=O)(=O)c1ccc(N)cc1 [Sulfacetamide sodic hydrate] | 52%
Cc1cn([C@H]2C=C[C@@H](CO)O2)c(=O)[nH]c1=O [Stavudine] | 75%
CCN(CC)CC(=O)Nc1c(C)cccc1C [Lidocaine hydrochloride] | 86%
c1ccc2c(CC3=NCCN3)cccc2c1 [Naphazoline hydrochloride] | 65%
CC(=O)OCC(=O)[C@@]12OC(C)(C)O[C@@H]1C[C@H]1[C@@H]3C[C@H](F)C4=CC(=O)C=C[C@]4(C)[C@@]3(F)[C@@H](O)C[C@@]12C [Fluocinonide] | 87%
CO[C@@H]1[C@@H](O[C@@H]2O[C@H](C)[C@@H](O[C@H]3C[C@@](C)(O)[C@@H](OC(=O)CC(C)C)[C@H](C)O3)[C@H](N(C)C)[C@H]2O)[C@@H](CC=O)C[C@@H](C)[C@@H](O)/C=C/C=C/C[C@@H](C)OC(=O)C[C@H]1OC(C)=O [Josamycin] | 95%
CC(=O)CC(c1ccccc1)c1c(O)c2ccccc2oc1=O (stereo not drawn) [Warfarin] | 63%
CC[C@@H]1C(=O)OC[C@@H]1Cc1cncn1C [Pilocarpine nitrate] | 78%
NS(=O)(=O)c1cc2c(cc1C(F)(F)F)NCNS2(=O)=O [Hydroflumethiazide] | 68%
CC(C)NC[C@@H](O)COc1ccc(CC(N)=O)cc1 [(R)-(+)-Atenolol] | 84%

Fetched one by one from above (three):
Compound | biofilm formation
C[C@H](CCC(=O)O)[C@H]1CC[C@H]2[C@@H]3[C@@H](O)C[C@@H]4C[C@H](O)CC[C@]4(C)[C@H]3CC[C@]12C [Urosiol] | 82%
C#C[C@]1(O)CC[C@H]2[C@@H]3CCC4=CCCC[C@@H]4[C@H]3CC[C@@]21C [Lynestrenol] | 47%
O=C(O)c1ccccc1C(=O)Nc1ccc(S(=O)(=O)Nc2nccs2)cc1 [Phthalylsulfathiazole] | 63%

Look-ups from the list:
In biofilm formation, c1ccc2c(CC3=NCCN3)cccc2c1 [Naphazoline hydrochloride] shows 65%
In biofilm formation, C#C[C@]1(O)CC[C@H]2[C@@H]3CCC4=CCCC[C@@H]4[C@H]3CC[C@@]21C [Lynestrenol] shows 47%

Further records.

Compound | biofilm formation
Cc1c(NC(=O)c2cccnc2)c(=O)n(-c2ccccc2)n1C [Nifenazone] | 78%
CS(=O)(=O)OCCCCOS(C)(=O)=O [Busulfan] | 65%
CC(=O)O[C@H]1C(=O)[C@@]2(C)[C@H]([C@H](OC(=O)c3ccccc3)[C@]3(O)C[C@H](OC(=O)[C@H](O)[C@@H](NC(=O)c4ccccc4)c4ccccc4)C(C)=C1C3(C)C)[C@]1(OC(C)=O)CO[C@@H]1C[C@@H]2O [Paclitaxel] | 85%
COc1cccc2c1C(=O)c1c(O)c3c(c(O)c1C2=O)C[C@@](O)(C(=O)CO)C[C@@H]3O[C@H]1C[C@H](N)[C@@H](O)[C@H](C)O1 [Epirubicin hydrochloride] | 58%
CCCN(CCC)CCc1cccc2c1CC(=O)N2 [Ropinirole hydrochloride] | 77%
O=C(CCNNC(=O)c1ccncc1)NCc1ccccc1 [Nialamide] | 67%
N/C(=N\C(=O)c1nc(Cl)c(N)nc1N)NCc1ccccc1 [Benzamil hydrochloride] | 56%
CSc1nc2cc(Cl)c(Oc3cccc(Cl)c3Cl)cc2[nH]1 [Triclabendazole] | 63%
Cc1nc2ccccn2c(=O)c1CCN1CCC(C(=O)c2ccc(F)cc2)CC1 [Pirenperone] | 70%
NC(=O)c1cnccn1 [Pyrazinamide] | 75%
CC1(C)S[C@@H]2[C@H](NC(=O)[C@H](N)c3ccccc3)C(=O)N2[C@H]1C(=O)O [Ampicillin trihydrate] | 5%
O=c1n(CCCN2CCN(c3cccc(Cl)c3)CC2)nc2ccccn12 [Trazodone hydrochloride] | 62%
COc1ccc2cc([C@H](C)C(=O)O)ccc2c1 [(S)-Naproxen] | 70%
Nc1cc(N2CCCCC2)nc(N)[n+]1[O-] [Minoxidil] | 79%
C/C=C(/C(=C/C)c1ccc(O)cc1)c1ccc(O)cc1 [Dienestrol] | 87%
Cc1ncc([N+](=O)[O-])n1CC(C)O (stereo not drawn) [Secnidazole] | 56%
O=C(O)c1ccccc1OP(=O)(O)O [Fosfosal] | 62%
O=C(O)c1cc(/N=N/c2ccc(S(=O)(=O)Nc3ccccn3)cc2)ccc1O [Sulfasalazine] | 100%
C/C(=C\C(=O)OCCCCCCCCC(=O)O)C[C@@H]1OC[C@H](C[C@@H]2O[C@H]2[C@@H](C)[C@H](C)O)[C@@H](O)[C@H]1O [Mupirocin] | 71%
CCc1cccc(CC)c1NC(=O)CN(CC(=O)O)CC(=O)O [Etifenin] | 71%
CN/C(=N\CCSCc1nc[nH]c1C)NC#N [Cimetidine] | 55%
CCCCc1ccc2[nH]c(NC(=O)OC)nc2c1 [Parbendazole] | 95%
Nc1ncnc2c1ncn2C1OC(COP(=O)(O)O)C(O)C1O (stereo not drawn) [Adenosine 5'-monophosphate monohydrate] | 53%
C[C@@H]1C[C@H]2[C@@H]3CCC4=CC(=O)C=C[C@]4(C)[C@@]3(Cl)[C@@H](O)C[C@]2(C)[C@@]1(OC(=O)c1ccco1)C(=O)CCl [Mometasone furoate] | 86%
CN1CCCN(C(c2ccccc2)c2ccc(Cl)cc2)CC1 (stereo not drawn) [Homochlorcyclizine dihydrochloride] | 57%

Compound | biofilm formation
CCOc1ccc2nc(S(N)(=O)=O)sc2c1 [Ethoxzolamide] | 74%
Cc1c(O)c(=O)n(-c2ccccc2)n1C [Antipyrine, 4-hydroxy] | 78%
CC(C)OC(=O)C(C)(C)Oc1ccc(C(=O)c2ccc(Cl)cc2)cc1 [Fenofibrate] | 45%
CC=CC1=C(C(=O)O)N2C(=O)[C@@H](NC(=O)[C@H](N)c3ccc(O)cc3)[C@H]2SC1 [Cefprozil] | 105%
Cc1cc2c(s1)Nc1ccccc1N=C2N1CCN(C)CC1 [Olanzapine] | 84%
C[C@@H](O[C@H]1OCCN(Cc2n[nH]c(=O)[nH]2)[C@H]1c1ccc(F)cc1)c1cc(C(F)(F)F)cc(C(F)(F)F)c1 [Aprepitant] | 53%
CN1CCCN=C1/C=C/c1cccc(O)c1 [Oxantel pamoate] | 80%
CC(N)CCCC(C)(C)O (stereo not drawn) [Heptaminol hydrochloride] | 56%
Cc1ccc(NC(=O)c2ccc(CN3CCN(C)CC3)cc2)cc1Nc1nccc(-c2cccnc2)n1 [Imatinib] | 128%
CCOC(=O)O[C@]1(C(=O)OCCl)CC[C@H]2[C@@H]3CCC4=CC(=O)C=C[C@]4(C)[C@H]3[C@@H](O)C[C@@]21C [Loteprednol etabonate] | 54%
Clc1ccc(C(Cn2ccnc2)OCc2ccsc2Cl)c(Cl)c1 (stereo not drawn) [Tioconazole] | 38%
CCCC1C(=O)N2C(N(C)C)=Nc3ccc(C)cc3N2C1=O (stereo not drawn) [Azapropazone] | 79%
C[C@](N)(Cc1ccc(O)c(O)c1)C(=O)O [Methyldopa (L,-)] | 61%
c1cnc(N2CCN(Cc3ccc4c(c3)OCO4)CC2)nc1 [Piribedil hydrochloride] | 81%
C[C@H]1c2cccc(O)c2C(=O)C2=C(O)[C@]3(O)C(=O)C(C(N)=O)=C(O)[C@@H](N(C)C)[C@@H]3[C@@H](O)[C@@H]21 [Doxycycline hydrochloride] | 30%
C1CCC(C(CC2CCCCN2)C2CCCCC2)CC1 (stereo not drawn) [Perhexiline maleate] | 46%
CC(C)NCC(O)COc1ccc(CCOCC2CC2)cc1 (stereo not drawn) [Betaxolol hydrochloride] | 73%
CCc1nc(N)nc(N)c1-c1ccc(Cl)cc1 [Pyrimethamine] | 66%
CC(=O)[C@@]1(O)CC[C@H]2[C@@H]3C[C@H](C)C4=CC(=O)C=C[C@]4(C)[C@@]3(F)[C@@H](O)C[C@@]21C [Fluorometholone] | 97%
CCCN1CCCC[C@H]1C(=O)Nc1c(C)cccc1C [Ropivacaine hydrochloride] | 102%
COc1cc(C(=O)NCc2ccc(OCCN(C)C)cc2)cc(OC)c1OC [Trimethobenzamide hydrochloride] | 96%
C#CCN[C@@H]1CCc2ccccc21 [Rasagiline] | 77%
COc1ccc(-c2cc(=S)ss2)cc1 [Anethole-trithione] | 80%
